± gives the standard deviation of the averaged measurements. The list shows a part of the results.
Compound: Nc1nc2c(ncn2[C@@H]2O[C@H](COP(=O)(O)OP(=O)(O)OP(=O)(O)O)[C@@H](O)[C@H]2O)c(=O)[nH]1 [guanosine triphosphate]
Assay: NP40-soluble protein abundance relative to vehicle (solubility fold change) (ratio); higher = more soluble protein in presence of GTP
Summary of the method: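 Crude Jurkat lysate, prepared by Dounce homogenisation, was exposed to eight concentrations from 0.1 to 10 mM for 10 min at room temperature and then 3 min at 37 °C. Solubilisation used 0.8% NP40 with benzonase for 60 min at 4 °C, followed by ultracentrifugation and TMT labelling of the supernatant for LC-MS/MS. After vsn normalisation of intensities, each value is the fold change against the detergent-processed vehicle within each replicate, across three independent experiments.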

Chains of the proteins cited; added tags and fusions are not shown. Lines headed by an entry give the natural chain unless they say otherwise; changes in a name come on top.
UniProt P23368: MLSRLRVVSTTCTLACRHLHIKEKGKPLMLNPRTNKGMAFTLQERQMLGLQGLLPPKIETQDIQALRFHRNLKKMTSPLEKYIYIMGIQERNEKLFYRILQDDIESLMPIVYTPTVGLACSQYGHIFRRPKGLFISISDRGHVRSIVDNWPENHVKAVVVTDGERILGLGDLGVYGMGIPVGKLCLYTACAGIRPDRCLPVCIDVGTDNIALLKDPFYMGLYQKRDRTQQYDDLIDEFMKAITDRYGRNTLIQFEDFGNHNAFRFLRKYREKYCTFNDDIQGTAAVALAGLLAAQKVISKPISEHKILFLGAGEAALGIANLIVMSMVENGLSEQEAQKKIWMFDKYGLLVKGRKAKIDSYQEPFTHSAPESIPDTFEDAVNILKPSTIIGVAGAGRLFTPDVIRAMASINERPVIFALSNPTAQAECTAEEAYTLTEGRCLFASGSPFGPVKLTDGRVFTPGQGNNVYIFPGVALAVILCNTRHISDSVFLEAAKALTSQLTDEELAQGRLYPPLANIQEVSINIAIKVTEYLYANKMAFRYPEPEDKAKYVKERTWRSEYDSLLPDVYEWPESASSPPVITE
UniProt P09661: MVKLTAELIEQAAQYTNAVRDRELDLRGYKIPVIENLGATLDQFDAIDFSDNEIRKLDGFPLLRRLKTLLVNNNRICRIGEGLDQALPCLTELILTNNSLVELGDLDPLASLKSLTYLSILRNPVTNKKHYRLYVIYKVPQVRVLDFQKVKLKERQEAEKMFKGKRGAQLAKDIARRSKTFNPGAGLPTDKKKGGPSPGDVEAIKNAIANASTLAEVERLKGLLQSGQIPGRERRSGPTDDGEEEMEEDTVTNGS
UniProt P13489: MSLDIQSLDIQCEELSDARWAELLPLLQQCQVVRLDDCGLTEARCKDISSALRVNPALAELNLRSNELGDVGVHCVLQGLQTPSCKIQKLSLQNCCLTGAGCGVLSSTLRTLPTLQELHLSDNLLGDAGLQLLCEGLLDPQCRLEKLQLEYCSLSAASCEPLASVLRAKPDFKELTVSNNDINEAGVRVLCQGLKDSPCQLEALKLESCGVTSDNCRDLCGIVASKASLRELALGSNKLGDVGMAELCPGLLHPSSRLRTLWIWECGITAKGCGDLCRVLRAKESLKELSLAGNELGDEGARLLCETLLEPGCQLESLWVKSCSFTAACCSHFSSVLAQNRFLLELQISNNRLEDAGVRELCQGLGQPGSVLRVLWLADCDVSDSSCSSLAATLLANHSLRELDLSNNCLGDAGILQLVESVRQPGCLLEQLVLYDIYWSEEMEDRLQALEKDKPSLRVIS
UniProt P07919: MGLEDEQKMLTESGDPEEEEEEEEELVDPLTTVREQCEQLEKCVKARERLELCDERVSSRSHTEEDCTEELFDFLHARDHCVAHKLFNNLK
UniProt P08047, whole entry: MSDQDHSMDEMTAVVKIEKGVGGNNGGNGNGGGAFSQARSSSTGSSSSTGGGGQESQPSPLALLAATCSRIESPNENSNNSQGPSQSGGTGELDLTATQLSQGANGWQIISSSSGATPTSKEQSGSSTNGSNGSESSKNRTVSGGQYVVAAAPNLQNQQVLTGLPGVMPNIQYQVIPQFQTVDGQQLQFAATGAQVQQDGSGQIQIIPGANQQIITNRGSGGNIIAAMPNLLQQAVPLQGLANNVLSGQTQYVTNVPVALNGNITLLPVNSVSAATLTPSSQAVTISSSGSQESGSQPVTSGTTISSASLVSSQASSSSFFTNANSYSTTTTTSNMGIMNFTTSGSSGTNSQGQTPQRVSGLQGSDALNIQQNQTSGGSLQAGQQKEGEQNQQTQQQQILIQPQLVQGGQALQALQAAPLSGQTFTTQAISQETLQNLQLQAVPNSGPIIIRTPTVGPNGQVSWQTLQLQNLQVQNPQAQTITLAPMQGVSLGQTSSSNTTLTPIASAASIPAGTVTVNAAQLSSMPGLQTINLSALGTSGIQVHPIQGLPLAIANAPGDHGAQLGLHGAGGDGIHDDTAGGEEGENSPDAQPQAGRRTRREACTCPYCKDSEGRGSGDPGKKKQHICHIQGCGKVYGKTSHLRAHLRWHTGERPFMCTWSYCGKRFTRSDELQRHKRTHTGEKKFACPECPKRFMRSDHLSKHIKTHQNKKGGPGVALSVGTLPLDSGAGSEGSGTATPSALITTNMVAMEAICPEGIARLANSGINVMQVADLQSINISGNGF
UniProt P14151: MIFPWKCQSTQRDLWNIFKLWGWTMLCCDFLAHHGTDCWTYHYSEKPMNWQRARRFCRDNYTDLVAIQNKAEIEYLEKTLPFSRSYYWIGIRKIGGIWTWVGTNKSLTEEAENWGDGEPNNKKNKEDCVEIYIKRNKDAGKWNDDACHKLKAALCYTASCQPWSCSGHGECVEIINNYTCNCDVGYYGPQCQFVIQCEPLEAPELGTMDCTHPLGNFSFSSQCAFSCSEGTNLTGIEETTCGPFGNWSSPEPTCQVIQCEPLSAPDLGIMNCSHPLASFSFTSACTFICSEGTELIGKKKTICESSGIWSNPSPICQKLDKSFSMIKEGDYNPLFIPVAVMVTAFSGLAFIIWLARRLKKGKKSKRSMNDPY
UniProt P19623: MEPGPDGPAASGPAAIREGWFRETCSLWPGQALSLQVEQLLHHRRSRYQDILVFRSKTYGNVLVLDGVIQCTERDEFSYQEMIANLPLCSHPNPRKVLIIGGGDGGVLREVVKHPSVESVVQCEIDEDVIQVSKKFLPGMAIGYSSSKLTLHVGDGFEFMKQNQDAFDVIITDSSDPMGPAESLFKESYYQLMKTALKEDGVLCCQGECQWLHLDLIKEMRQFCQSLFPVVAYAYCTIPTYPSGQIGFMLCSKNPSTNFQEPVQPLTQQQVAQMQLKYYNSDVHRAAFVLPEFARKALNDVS
UniProt P14921: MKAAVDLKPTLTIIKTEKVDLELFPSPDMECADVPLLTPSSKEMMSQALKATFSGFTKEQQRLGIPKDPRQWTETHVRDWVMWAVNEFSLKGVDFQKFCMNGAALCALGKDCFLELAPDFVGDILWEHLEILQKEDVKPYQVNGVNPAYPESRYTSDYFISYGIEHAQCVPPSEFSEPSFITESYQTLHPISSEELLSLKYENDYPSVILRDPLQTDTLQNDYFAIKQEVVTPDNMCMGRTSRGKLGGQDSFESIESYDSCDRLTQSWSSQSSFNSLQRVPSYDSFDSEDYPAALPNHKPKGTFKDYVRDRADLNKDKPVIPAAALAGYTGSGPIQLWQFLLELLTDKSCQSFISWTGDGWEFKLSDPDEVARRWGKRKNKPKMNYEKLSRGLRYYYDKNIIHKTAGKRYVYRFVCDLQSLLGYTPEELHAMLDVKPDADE
UniProt P07738: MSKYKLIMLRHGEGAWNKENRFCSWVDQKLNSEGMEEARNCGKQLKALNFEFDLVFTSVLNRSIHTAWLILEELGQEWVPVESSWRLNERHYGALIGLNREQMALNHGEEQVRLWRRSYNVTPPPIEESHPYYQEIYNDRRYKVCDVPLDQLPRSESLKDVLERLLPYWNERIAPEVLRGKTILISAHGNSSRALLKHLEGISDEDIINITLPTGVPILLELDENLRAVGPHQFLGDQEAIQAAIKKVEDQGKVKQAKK
UniProt P0C7P0: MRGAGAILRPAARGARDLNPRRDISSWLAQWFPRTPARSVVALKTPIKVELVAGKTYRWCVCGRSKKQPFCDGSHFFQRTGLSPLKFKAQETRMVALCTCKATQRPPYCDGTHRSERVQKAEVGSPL
UniProt P20339: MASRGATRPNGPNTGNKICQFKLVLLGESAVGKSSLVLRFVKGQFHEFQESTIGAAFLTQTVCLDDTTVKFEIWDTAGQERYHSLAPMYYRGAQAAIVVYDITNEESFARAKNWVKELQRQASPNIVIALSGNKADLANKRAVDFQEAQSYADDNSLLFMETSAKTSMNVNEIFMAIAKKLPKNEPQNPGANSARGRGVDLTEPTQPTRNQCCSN
UniProt P23526: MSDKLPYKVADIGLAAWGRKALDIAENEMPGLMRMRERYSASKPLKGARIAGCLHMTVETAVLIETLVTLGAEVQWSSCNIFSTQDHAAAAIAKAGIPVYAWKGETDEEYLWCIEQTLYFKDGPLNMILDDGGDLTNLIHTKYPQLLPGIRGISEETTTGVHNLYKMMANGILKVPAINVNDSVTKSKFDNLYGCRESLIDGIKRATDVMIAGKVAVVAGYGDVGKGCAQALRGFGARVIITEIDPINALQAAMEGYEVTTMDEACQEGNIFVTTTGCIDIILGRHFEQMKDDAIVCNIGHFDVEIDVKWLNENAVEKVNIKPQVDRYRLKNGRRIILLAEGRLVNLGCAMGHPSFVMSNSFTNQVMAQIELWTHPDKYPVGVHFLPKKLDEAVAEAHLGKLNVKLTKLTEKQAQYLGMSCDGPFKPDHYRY
UniProt P20701: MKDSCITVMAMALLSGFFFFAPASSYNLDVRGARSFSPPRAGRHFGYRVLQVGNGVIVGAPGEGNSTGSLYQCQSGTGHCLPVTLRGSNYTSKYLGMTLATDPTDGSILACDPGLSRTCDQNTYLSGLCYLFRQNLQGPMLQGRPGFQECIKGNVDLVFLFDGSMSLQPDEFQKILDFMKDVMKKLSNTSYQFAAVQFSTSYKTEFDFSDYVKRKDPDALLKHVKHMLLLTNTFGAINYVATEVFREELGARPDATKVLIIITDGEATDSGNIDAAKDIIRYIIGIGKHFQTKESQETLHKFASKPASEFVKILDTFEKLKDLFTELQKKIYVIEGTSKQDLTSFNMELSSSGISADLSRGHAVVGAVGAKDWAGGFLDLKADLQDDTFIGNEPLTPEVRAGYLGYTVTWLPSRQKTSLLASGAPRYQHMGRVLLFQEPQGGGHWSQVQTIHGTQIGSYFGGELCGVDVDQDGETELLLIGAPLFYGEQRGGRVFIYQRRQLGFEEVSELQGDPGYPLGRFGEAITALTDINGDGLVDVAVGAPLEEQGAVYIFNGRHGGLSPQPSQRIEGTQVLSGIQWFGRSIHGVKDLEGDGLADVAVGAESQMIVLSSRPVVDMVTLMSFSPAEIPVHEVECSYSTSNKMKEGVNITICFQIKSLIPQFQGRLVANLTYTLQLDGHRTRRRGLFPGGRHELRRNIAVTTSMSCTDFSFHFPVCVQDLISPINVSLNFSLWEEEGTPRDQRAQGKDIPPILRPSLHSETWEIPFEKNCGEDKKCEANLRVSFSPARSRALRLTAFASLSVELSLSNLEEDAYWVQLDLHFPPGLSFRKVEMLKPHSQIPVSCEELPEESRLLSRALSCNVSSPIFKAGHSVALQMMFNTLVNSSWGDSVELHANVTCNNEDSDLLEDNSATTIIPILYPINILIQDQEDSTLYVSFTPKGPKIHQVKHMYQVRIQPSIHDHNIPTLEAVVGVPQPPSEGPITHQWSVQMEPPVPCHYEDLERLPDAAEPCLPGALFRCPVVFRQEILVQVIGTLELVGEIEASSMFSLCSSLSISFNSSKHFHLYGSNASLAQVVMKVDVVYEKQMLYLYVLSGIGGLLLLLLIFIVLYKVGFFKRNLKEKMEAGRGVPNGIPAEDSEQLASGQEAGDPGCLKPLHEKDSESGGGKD
UniProt P09012, whole entry: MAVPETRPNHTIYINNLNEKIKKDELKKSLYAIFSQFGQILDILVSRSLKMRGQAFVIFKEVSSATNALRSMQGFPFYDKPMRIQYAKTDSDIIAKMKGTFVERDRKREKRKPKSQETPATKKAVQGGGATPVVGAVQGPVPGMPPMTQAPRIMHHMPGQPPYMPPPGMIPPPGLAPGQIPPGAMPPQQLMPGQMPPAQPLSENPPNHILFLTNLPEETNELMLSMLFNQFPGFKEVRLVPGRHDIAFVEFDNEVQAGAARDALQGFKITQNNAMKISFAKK
UniProt P13995: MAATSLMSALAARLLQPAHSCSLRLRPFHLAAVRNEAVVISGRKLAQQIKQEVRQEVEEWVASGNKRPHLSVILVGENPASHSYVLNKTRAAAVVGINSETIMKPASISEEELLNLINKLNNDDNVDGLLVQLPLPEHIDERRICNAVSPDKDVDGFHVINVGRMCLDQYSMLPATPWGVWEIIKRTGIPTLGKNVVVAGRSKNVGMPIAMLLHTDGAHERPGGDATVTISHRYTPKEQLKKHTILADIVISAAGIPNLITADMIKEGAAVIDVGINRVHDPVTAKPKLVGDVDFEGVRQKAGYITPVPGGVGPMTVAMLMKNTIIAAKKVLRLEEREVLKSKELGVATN
UniProt P18754: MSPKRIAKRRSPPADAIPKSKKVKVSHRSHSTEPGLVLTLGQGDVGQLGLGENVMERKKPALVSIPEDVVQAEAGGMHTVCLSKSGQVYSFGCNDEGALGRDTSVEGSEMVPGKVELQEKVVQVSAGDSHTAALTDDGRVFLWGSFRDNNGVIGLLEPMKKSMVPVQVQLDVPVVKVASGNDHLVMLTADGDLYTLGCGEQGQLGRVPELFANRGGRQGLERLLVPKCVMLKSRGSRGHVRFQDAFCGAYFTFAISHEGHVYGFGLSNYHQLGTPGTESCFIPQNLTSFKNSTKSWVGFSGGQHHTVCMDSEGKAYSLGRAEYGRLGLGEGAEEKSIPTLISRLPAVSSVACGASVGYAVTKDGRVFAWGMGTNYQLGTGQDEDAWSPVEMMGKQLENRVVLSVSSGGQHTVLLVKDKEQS

Target	NP40-soluble protein abundance (concentration: 0.1mM)	NP40-soluble protein abundance (concentration: 0.5mM)	NP40-soluble protein abundance (concentration: 1mM)	NP40-soluble protein abundance (concentration: 2mM)	NP40-soluble protein abundance (concentration: 4mM)	NP40-soluble protein abundance (concentration: 6mM)	NP40-soluble protein abundance (concentration: 8mM)	NP40-soluble protein abundance (concentration: 10mM)
TMEM11 (UniProt P17152)	1.01 ± 0.011	1.02 ± 0.035	0.828 ± 0.055	0.873 ± 0.017	0.856 ± 0.018	0.854 ± 0.016	0.807 ± 0.1	0.795 ± 0.2
CYC1 (UniProt P08574)	1.01 ± 0.039	1.02 ± 0.036	0.995 ± 0.022	1.01 ± 0.041	0.961 ± 0.068	0.957 ± 0.035	0.947 ± 0.037	0.918 ± 0.038
ME2 (UniProt P23368)	1.06 ± 0.083	1.07 ± 0.12	0.915 ± 0.057	0.98 ± 0.14	0.966 ± 0.096	0.931 ± 0.11	0.865 ± 0.013	0.827 ± 0.079
EIF2S2 (UniProt P20042)	0.967 ± 0.061	0.994 ± 0.082	1.02 ± 0.096	1 ± 0.1	1.01 ± 0.092	1.03 ± 0.11	1.05 ± 0.079	1.04 ± 0.091
TRIM21 (UniProt P19474)	1.02 ± 0.022	0.992 ± 0.043	0.926 ± 0.023	0.908 ± 0.027	0.914 ± 0.034	0.918 ± 0.04	0.909 ± 0.012	0.829 ± 0.048
SNRPA1 (UniProt P09661)	0.904 ± 0.019	0.867 ± 0.052	0.991 ± 0.023	1.01 ± 0.051	1.06 ± 0.033	1.04 ± 0.067	1.03 ± 0.081	1.14 ± 0.048
RNH1 (UniProt P13489)	1.01 ± 0.048	0.994 ± 0.09	0.92 ± 0.046	0.904 ± 0.078	0.903 ± 0.077	0.896 ± 0.084	0.876 ± 0.054	0.846 ± 0.071
UQCRH (UniProt P07919)	1.15 ± 0.29	1.1 ± 0.11	0.929 ± 0.43	0.888 ± 0.38	0.826 ± 0.38	0.868 ± 0.25	0.871 ± 0.25	1.2 ± 0.066
UniProt P08047 and related entries	0.916 ± 0.06	0.939 ± 0.062	0.967 ± 0.064	0.957 ± 0.082	0.918 ± 0.079	0.963 ± 0.091	0.975 ± 0.043	1.01 ± 0.039
UniProt P14151 and related entries	0.844 ± 0.078	0.865 ± 0.1	0.923 ± 0.049	0.872 ± 0.12	0.848 ± 0.1	0.887 ± 0.1	0.87 ± 0.1	0.903 ± 0.086
UniProt P18583 and related entries	1.05 ± 0.022	1.09 ± 0.038	1.16 ± 0.057	1.21 ± 0.035	1.24 ± 0.098	1.28 ± 0.073	1.31 ± 0.11	1.4 ± 0.12
SRM (UniProt P19623)	0.979 ± 0.029	0.982 ± 0.024	0.934 ± 0.031	0.918 ± 0.066	0.912 ± 0.078	0.903 ± 0.062	0.876 ± 0.068	0.864 ± 0.11
UniProt P14921 and related entries	0.957 ± 0.031	0.965 ± 0.021	0.926 ± 0.074	0.885 ± 0.082	0.905 ± 0.088	0.882 ± 0.11	0.895 ± 0.052	0.884 ± 0.084
BPGM (UniProt P07738)	1.02 ± 0.06	0.998 ± 0.017	0.991 ± 0.038	1 ± 0.041	0.959 ± 0.07	0.92 ± 0.082	0.946 ± 0.019	0.936 ± 0.035
CISD3 (UniProt P0C7P0)	1.08 ± 0.017	1 ± 0.083	1.154 ± 0.0099	1.13 ± 0.1	1.24 ± 0.12	1.16 ± 0.16	1.17 ± 0.049	1.15 ± 0.12
UniProt P20339 and related entries	0.999 ± 0.016	1.08 ± 0.04	0.875 ± 0.057	0.937 ± 0.059	0.865 ± 0.034	0.85 ± 0.024	0.82 ± 0.13	0.828 ± 0.14
GAA (UniProt P10253)	0.977 ± 0.014	0.955 ± 0.046	0.924 ± 0.02	0.9345 ± 0.0053	0.913 ± 0.035	0.902 ± 0.012	0.934 ± 0.05	0.898 ± 0.022
P0CG12 and related entries (UniProt P0CG13)	1.06 ± 0.14	0.994 ± 0.082	1.02 ± 0.071	0.951 ± 0.1	0.992 ± 0.1	1.02 ± 0.07	0.98 ± 0.12	1.06 ± 0.094
AHCY (UniProt P23526)	1.03 ± 0.025	1.05 ± 0.076	0.944 ± 0.023	0.963 ± 0.07	0.965 ± 0.054	0.952 ± 0.072	0.912 ± 0.018	0.882 ± 0.039
UniProt P17096 and related entries	1.06 ± 0.062	1.06 ± 0.12	1.21 ± 0.081	1.33 ± 0.12	1.37 ± 0.14	1.69 ± 0.3	1.55 ± 0.21	2.02 ± 0.076
UniProt P19174 and related entries	1.05 ± 0.04	1.06 ± 0.06	0.952 ± 0.021	0.975 ± 0.066	0.967 ± 0.047	0.944 ± 0.051	0.9149 ± 0.0042	0.882 ± 0.039
UniProt P20701 and related entries	1.012 ± 0.0059	0.998 ± 0.026	0.991 ± 0.012	0.978 ± 0.011	0.974 ± 0.019	0.982 ± 0.025	0.972 ± 0.0027	0.983 ± 0.03
AKR1B1 (UniProt P15121)	0.984 ± 0.019	1 ± 0.026	0.89 ± 0.037	0.87 ± 0.044	0.846 ± 0.058	0.855 ± 0.042	0.814 ± 0.083	0.769 ± 0.1
SNRPA (UniProt P09012)	0.9 ± 0.024	0.893 ± 0.052	0.974 ± 0.017	0.926 ± 0.068	0.912 ± 0.052	0.924 ± 0.05	0.915 ± 0.039	0.901 ± 0.033
MTHFD2 (UniProt P13995)	1.01 ± 0.029	0.9845 ± 0.0074	0.976 ± 0.052	0.934 ± 0.05	0.95 ± 0.075	0.928 ± 0.055	0.956 ± 0.058	0.923 ± 0.058
UMPS (UniProt P11172)	1.06 ± 0.016	1.05 ± 0.034	0.943 ± 0.021	0.946 ± 0.041	0.908 ± 0.044	0.905 ± 0.032	0.878 ± 0.051	0.843 ± 0.079
UniProt P18754 and related entries	1.01 ± 0.037	1.03 ± 0.064	0.975 ± 0.054	0.966 ± 0.053	0.971 ± 0.033	0.971 ± 0.047	0.981 ± 0.052	0.958 ± 0.053

Copied from the list:
In NP40-soluble protein abundance (concentration: 10mM), UniProt P18754 and related entries shows 0.958 ± 0.053
In NP40-soluble protein abundance (concentration: 10mM), UniProt P14921 and related entries shows 0.884 ± 0.084
